Measurements published in paper PMC5224502.
No constants are given. Whether binding was seen depends on the method and setting. In cells and extracts the contact can be indirect. Some entries that bind do so weakly or less than the wild type. Tags and fused reporters may be left off the sequences shown.

Chains of the proteins cited; added tags and fusions are not shown.
UniProt P05412: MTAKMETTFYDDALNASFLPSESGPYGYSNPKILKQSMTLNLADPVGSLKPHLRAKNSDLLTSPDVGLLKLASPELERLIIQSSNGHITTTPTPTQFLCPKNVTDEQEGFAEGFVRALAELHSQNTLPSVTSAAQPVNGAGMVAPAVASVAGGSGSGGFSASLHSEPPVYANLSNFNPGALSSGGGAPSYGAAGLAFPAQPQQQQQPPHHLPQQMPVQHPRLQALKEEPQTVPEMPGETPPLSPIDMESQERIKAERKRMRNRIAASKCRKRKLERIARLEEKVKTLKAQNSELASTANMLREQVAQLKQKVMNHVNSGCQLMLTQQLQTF

T1: GST-HsOxs1 (human) (UniProt Q96CT7)
T1 sequence: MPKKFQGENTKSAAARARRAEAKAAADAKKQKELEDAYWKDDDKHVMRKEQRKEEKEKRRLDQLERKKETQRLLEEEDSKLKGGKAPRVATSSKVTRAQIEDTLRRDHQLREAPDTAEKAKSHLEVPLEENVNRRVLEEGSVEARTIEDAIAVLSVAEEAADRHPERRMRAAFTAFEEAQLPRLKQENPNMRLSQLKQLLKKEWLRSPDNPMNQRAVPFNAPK

B1: His-Pap1 (protein, UniProt Q01663 1-552)
chain: MSGQTETLSSTSNIPIAKAEPEQSADFSASHKKRGPVSDRSSRRTSSEEVDLMPNVDDEVDGDVKPKKIGRKNSDQEPSSKRKAQNRAAQRAFRKRKEDHLKALETQVVTLKELHSSTTLENDQLRQKVRQLEEELRILKDGSFTFEMSLPHRNPSLSSLPTTGFSSNFAHMKDGISPQSNLHLSPNSIEKPNMHQNVLHNDRSADNLNHRYQVPPTLVDSNSAQGTLSPETPSSSDSPSNLYLNYPKRKSITHLHHDCSALSNGENGEDVADGKQFCQKLSTACGSIACSMLTKTTPHRASVDILSNLHESTVSPPMADESVQRSSEVSKSIPNVELSLNVNQQFVSPFGGTDSFPLPTDTGLDSLFEPDSAIENSHLKNVVMEPELFQAWREPAESLDKEFFNDEGEIDDVFHNYFHNSNENGDLITNSLHGLDFLENANESFPEQMYPFIKHNKDYISNHPDEVPPDGLPQKGKHDTSSQMPSENEIVPAKERAYLSCPKVWSKIINHPRFESFDIDDLCSKLKNKAKCSSSGVLLDERDVEAALNQFN
B2: His-AtbZIP10 (protein, UniProt O22763 1-411)
chain: MNSIFSIDDFSDPFWETPPIPLNPDSSKPVTADEVSQSQPEWTFEMFLEEISSSAVSSEPLGNNNNAIVGVSSAQSLPSVSGQNDFEDDSRFRDRDSGNLDCAAPMTTKTVIVDSDDYRRVLKNKLETECATVVSLRVGSVKPEDSTSSPETQLQPVQSSPLTQGELGVTSSLPAEVKKTGVSMKQVTSGSSREYSDDEDLDEENETTGSLKPEDVKKSRRMLSNRESARRSRRRKQEQTSDLETQVNDLKGEHSSLLKQLSNMNHKYDEAAVGNRILKADIETLRAKVKMAEETVKRVTGMNPMLLGRSSGHNNNNRMPITGNNRMDSSSIIPAYQPHSNLNHMSNQNIGIPTILPPRLGNNFAAPPSQTSSPLQRIRNGQNHHVTPSANPYGWNTEPQNDSAWPKKCVD

molecular target: T1, GST-HsOxs1 (human); test: pull-down; GST fusion from E. coli lysate bound to MagneGST beads (4°C, 4 h) and washed four times; beads incubated overnight at 4°C with E. coli lysate expressing the His fusion; wash buffer 25 mM Tris-HCl pH 7.2, 150 mM NaCl, 1 mM EDTA, 1 mM EGTA, 1% Triton X-100, 0.5% Nonidet P-40, 1 mM DTT; western blot with anti-His; only the target purified

binding | Molecule
binds | His-HscJun (from UniProt P05412 1-331)
binds | B1
binds | B2
